# Residue numbers refer to the chain shown, from its start. Results are given in words; binding and its absence hold for the method and conditions named. In cells and extracts the contact can be indirect. Some binding calls cover weakened binding; strength is not graded here. For some assays here: Sequences can lack the tags named with a protein.
# Protein sequences, listed by entry. Tags and fused reporters are not part of them. Residues count along the entry.
# UniProt P56726, residues 33-793: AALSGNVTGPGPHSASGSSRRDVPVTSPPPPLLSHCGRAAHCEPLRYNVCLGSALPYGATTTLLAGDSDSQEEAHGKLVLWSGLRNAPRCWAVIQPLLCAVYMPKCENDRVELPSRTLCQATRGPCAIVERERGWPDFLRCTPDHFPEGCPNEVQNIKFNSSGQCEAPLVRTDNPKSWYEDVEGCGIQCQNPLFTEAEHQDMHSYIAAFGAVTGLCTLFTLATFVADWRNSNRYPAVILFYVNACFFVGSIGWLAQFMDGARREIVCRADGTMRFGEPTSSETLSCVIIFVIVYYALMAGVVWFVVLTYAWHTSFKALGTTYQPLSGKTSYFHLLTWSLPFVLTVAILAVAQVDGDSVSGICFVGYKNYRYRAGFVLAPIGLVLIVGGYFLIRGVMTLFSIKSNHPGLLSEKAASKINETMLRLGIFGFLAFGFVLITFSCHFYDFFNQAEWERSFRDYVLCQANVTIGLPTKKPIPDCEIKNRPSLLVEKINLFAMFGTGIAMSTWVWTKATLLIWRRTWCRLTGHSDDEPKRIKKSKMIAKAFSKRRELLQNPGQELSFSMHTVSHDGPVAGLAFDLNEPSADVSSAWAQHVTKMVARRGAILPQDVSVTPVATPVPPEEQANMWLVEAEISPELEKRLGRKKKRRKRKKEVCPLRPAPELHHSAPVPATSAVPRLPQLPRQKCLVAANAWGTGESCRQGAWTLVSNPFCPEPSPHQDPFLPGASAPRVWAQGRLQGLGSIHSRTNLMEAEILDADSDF
# Tests used:
# [1] = target: T1, GST-EHD1 (UniProt Q9H4M9); assay: pull-down; GST fusion protein (20 ug) on glutathione Sepharose-4B beads (30 C, 1 hour), then incubated with extracts of NIH3T3 SMO-GFP cells (starved, SAG 24 hours) at 4 C overnight; Western blot for Smoothened and GST; only the target purified
# T1 sequence: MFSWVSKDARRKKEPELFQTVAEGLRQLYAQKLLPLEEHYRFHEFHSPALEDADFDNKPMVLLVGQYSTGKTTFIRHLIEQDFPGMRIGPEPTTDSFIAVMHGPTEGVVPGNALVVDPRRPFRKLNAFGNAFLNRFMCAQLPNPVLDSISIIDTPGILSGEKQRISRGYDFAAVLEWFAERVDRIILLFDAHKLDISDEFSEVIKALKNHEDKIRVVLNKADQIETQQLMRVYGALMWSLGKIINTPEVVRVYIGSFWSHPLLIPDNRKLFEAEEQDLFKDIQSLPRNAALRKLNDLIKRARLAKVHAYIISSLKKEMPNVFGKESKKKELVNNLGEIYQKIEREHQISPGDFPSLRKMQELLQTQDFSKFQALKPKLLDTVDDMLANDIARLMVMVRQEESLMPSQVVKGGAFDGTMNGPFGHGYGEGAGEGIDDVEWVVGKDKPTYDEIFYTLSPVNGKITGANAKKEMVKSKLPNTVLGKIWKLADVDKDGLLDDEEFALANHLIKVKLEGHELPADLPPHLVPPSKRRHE
# [2] = target: T2, EHD1 (endogenous) (mouse (endogenous in NIH3T3)) (UniProt Q9WVK4); assay: co-IP; EHD1 antibody (Abcam ab109311) cross-linked to Protein G magnetic beads; whole cell lysates of NIH3T3 cells stably expressing SMO-GFP, starved and treated with SAG (24 hrs); SMO detected by immunoblot; control IP with non-specific rabbit IgG
# T2 sequence: T1 sequence with P350S, V408A, V526I
substance,measurement,setting,value
SMO-GFP (Smoothened fused to GFP) (from UniProt P56726 33-793) (receptor),binding,[1],binds
same,binding,[2],binds

# Reference: article PMC4756679
